# In patent publication US8956838B2, “Carboxyl esterase polypeptides” (B.R.A.I.N., priority 2006, dated 2015):
# B1: EstCL1: recombinant enzyme having carboxyl esterase activity, amino acid sequence SEQ ID NO: 6, family IV of bacterial lipolytic enzymes (protein)
# chain: MTDPYVRPDVAMFLAFLNNAPGPKLHELSAPEARMVQNAMRDMADAPVGELAVMRDLEIPGPAGTIMARLYDKQPGRGSGPAMVFFHGGGFVIGNIHTYEPFCAEVARLLDLPVISVEYRLGPESPFPAAFEDCEAAARWVASKPEALGFDVSGLILSGDSAGGNLTISTSMALRDVAAGVPVIAQMPIYPVVTLDPDWPSMRDFADGYLLTAELIQWFGDGHGASGEDYRTHPLDFDQSGMPPTVITTASLDPLRDQGMAYFEKLKAAGVRAEHISAEGNIHGHINVRKGIPSSQQDVEGYVTALTAMLAGVMAEA
# modifications: metagenomic sequence
# B2: EstCE1: recombinant enzyme having carboxyl esterase activity, amino acid sequence SEQ ID NO: 4, family VIII of bacterial lipolytic enzymes (protein)
# chain: MSIADQSLAKRVQGVSQQAIDEGRIVGSVVLIARHGRVIYANASGYADREQKKPMVRETQFRLSSVSKPYITLAAMRMIEQQKLGLDDTVSRWLPWFTPALADGVRPPIKIRHLLSHTAGLDYRLSQPAEGPYHRLGIKDGMELSSLTLEQNLRLLAQADLLAEPGSEFRYSLAIDVLGAVLEQVAGEPLPQVFNHWVAQPLGLRNTGFYTTDVDNLATAYHDTAAEPEPIRDGMLLTLPEGFGFEIELAPSRALDAQAYPSGGAGMVGDADDVLQLVETLRTGKEGILQPATAALMRQAHVGSHAETQGPGWGFGFGGAVLEDAQLAATPQHNGTLQWGGVYGHSWFYDPQAAISVVALTNTAFEGMSGRYPLQIRDAVYGTNEPTR
# modifications: metagenomic sequence
# B3: EstA3: recombinant enzyme having carboxyl esterase activity, amino acid sequence SEQ ID NO: 2, family VIII of bacterial lipolytic enzymes (protein)
# chain: MSAEELGFLPDRLARISDHIQTNYLDNGKLPFASLLIGRGDDIALQWSSGVADDAIFRIASMTKPVTSVAFMQLVEQGKVALTDPVAKYIPEFAKLGVFVAGGGNIPFVSRPPTMPMRIVDVLRHTTGFTYSFQERSNIDAAYRKTDVESWTRSTSQSFIDTLAEIPLEFDPGTQWNYSVSTDVLGILIERISGQSLPDYFRDHIFAPLGMVDTCFTVPADKAARIPQCFAFDPATKMKLFDEAGASSLWTKGWSFNSGGGGLASSVADYHRFCRMLLNGGALDGIQIISPKTLELMTANHLPGGQDLTQMSKSLFSEAEMAGIGFGLGFATTIDSVATLTPCSTGDFYWGGMYSTAFFVDPVEDIIMIFMTQLMPSSTYPVRREIKTMIYSALAA
# modifications: metagenomic sequence
# Legend:
# [1] = Determination of pH optimum by titration; format: biochemical; conditions: tributyrin 2 mM, 37° C., range pH 4 to 11
# Experimental: The pH optimum for the enzymes was determined using tributyrin as substrate. The incubation conditions were 20 ml buffer (2.5 mM phosphate buffer [pH 4-7], 2.5 mM Tris/HCl buffer [pH 7-11] or 2.5 mM glycine buffer [pH 9-11], supplemented with 100 mM NaCl) stirred at a constant temperature of 37° C. The esterase substrate tributyrin (final concentration of 2 mM) was added to 5 ml of the corresponding buffer at 37° C., emulsified and added to the whole preparation. This substrate emulsion was held constant at the correct pH automatically by the titrator (718 STAT Titrino; Metrohm, Herisau, Switzerland) for 2 min and this served as the control. […]
# [2] = Determination of temperature optimum; format: biochemical; conditions: pNP-caproate, tested 25° C. to 70° C.
Molecule,pH below which no activity [1],pH of highest activity [1],temperature of maximum activity [2]
B1,6 pH,8 pH,–
B2,5 pH,10 pH,50 °C
B3,4 pH,9 pH,47 °C
